Data source: PubChem BioAssay AID743458 (Peter MacCallum Cancer Centre, 2014)
Purpose: 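Find knock-downs that make vorinostat-resistant colon cancer cells sensitive again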 (follow-up of hits). System: human HCT116-VR colon cancer cells made resistant to vorinostat. Knock-down reagent: single siRNA or pool against human genes, 25 nM per single siRNA. Timing: about 72 h after transfection, including 24 h of drug. Conditions: vorinostat, 2.5 µM final, for 24 h. Measured: 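Cell viability by fluorescence and apoptosis by caspase 3/7 luminescence under vorinostat, background-corrected, averaged across two plate copies and given as fold change versus mock transfection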. Direction: viability relative to mock: higher = more living cells than mock; caspase activity relative to mock: higher = more apoptosis than mock. Hit rule: 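An siRNA counts as active if classed as reduced viability or as caspase activation, otherwise inactive; a hit class needed wells that remained healthy in the absence of drug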.
Here is an unselected part of about 1,800 reagents. Of all reagents, 732 (41%) were called active. 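Calls are per siRNA reagent; a gene was deemed confirmed only if most of its four siRNAs scored.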 Entries without a mark were called inactive. Reagents against one gene are numbered here. Reagent sequences are not shown.

After knock-down of SOWAHB #1 the results were viability relative to mock 0.74; caspase activity relative to mock 1.23; viability hit class no change; caspase hit class no change.
With knock-down of SOWAHB #2, the record shows viability relative to mock 0.82; caspase activity relative to mock 0.63; viability hit class no change; caspase hit class no change.
For SOWAHB #3, the values are viability relative to mock 1.04; caspase activity relative to mock 1.04; viability hit class no change; caspase hit class no change.
SOWAHB #4 showed viability relative to mock 0.62 (active); caspase activity relative to mock 4.36; viability hit class no change; caspase hit class caspase activation.
After knock-down of GRP #1 the results were viability relative to mock 0.11; caspase activity relative to mock 1.38; viability hit class no change; caspase hit class no change.
Depletion of GRP #2 resulted in: viability relative to mock 0.62 (active); caspase activity relative to mock 3.18; viability hit class no change; caspase hit class caspase activation.
With knock-down of GRP #3, the record shows viability relative to mock 0.79; caspase activity relative to mock 2.48; viability hit class no change; caspase hit class no change.
GRP #4 showed viability relative to mock 0.66; caspase activity relative to mock 0.98; viability hit class no change; caspase hit class no change.
Against PCGF6 #1, the entry reads viability relative to mock 1; caspase activity relative to mock 1.32; viability hit class no change; caspase hit class no change.
PCGF6 #2 showed viability relative to mock 0.91; caspase activity relative to mock 1.73; viability hit class no change; caspase hit class no change.
Against PCGF6 #3 the deposit lists viability relative to mock 0.98; caspase activity relative to mock 0.97; viability hit class no change; caspase hit class no change.
After knock-down of PCGF6 #4 the results were viability relative to mock 0.9; caspase activity relative to mock 0.89; viability hit class no change; caspase hit class no change.
Silencing of TDP2 #1 gave: viability relative to mock 0.52 (active); caspase activity relative to mock 4.45; viability hit class reduced viability; caspase hit class caspase activation.
For TDP2 #2 the deposit lists viability relative to mock 0.58 (active); caspase activity relative to mock 2.85; viability hit class no change; caspase hit class caspase activation.
For TDP2 #3 the deposit lists viability relative to mock 0.75 (active); caspase activity relative to mock 3.59; viability hit class no change; caspase hit class caspase activation.
TDP2 #4 showed viability relative to mock 0.31 (active); caspase activity relative to mock 3.81; viability hit class reduced viability; caspase hit class caspase activation.
With knock-down of SCUBE1 #1 the results were viability relative to mock 0.83; caspase activity relative to mock 1.06; viability hit class no change; caspase hit class no change.
With knock-down of SCUBE1 #2 the results were viability relative to mock 0.46 (active); caspase activity relative to mock 3.46; viability hit class reduced viability; caspase hit class caspase activation.
Depletion of SCUBE1 #3 gave: viability relative to mock 0.52 (active); caspase activity relative to mock 1.77; viability hit class reduced viability; caspase hit class no change.
Silencing of SCUBE1 #4 came out at: viability relative to mock 0.9 (active); caspase activity relative to mock 3.55; viability hit class no change; caspase hit class caspase activation.
After knock-down of PCP2 #1 the results were viability relative to mock 0.88; caspase activity relative to mock 1.85; viability hit class no change; caspase hit class no change.
For PCP2 #2, the values are viability relative to mock 0.7 (active); caspase activity relative to mock 2.94; viability hit class no change; caspase hit class caspase activation.
With knock-down of PCP2 #3 the results were viability relative to mock 0.45 (active); caspase activity relative to mock 2.9; viability hit class reduced viability; caspase hit class caspase activation.
PCP2 #4 gave viability relative to mock 0.75; caspase activity relative to mock 0.57; viability hit class no change; caspase hit class no change.

No new results follow: 2 of the entries above.
PCGF6 #4 | viability relative to mock: 0.9; caspase activity relative to mock: 0.89; viability hit class: no change; caspase hit class: no change
TDP2 #1 | viability relative to mock: 0.52 (active); caspase activity relative to mock: 4.45; viability hit class: reduced viability; caspase hit class: caspase activation
